{"source": "PubChem BioAssay AID504648", "about": "(National Center for Advancing Translational Sciences (NCATS), 2011)", "note": "Among all 390,000 compounds or so, about 610 (0.16%) were called active. The shares of active, inactive and inconclusive entries below differ from those in the screen. Calls follow the shape of the dose curve; as a rule, active = well fitted inhibition curve with a large enough effect; inconclusive = small, poorly fitted or top-dose-only effect, or effect the other way, or another doubt; inactive = no such curve, though single readings can be large or run the other way. Potencies of inconclusive entries are doubtful fits and often do not repeat. Potency is read from the fitted curve at half-maximal effect.", "data": [{"assay": "Nrf2 qHTS screen for inhibitors: counterscreen for cytotoxicity", "conditions": "A549 ARE-Fluc cells, CellTiter-Fluor viability, 18-24 h; series mostly up to 46 µM", "description": "NIH Molecular Libraries Probe Production Network [MLPCN]\nNIH Chemical Genomics Center [NCGC]\nAssay Provider: Shyam Biswal, Johns Hopkins University\nNrf2 is a transcription factor that maintains cellular redox homoestasis and protects cells from xenobiotics. Nrf2 binds to the antioxidant response element (ARE) to induce gene expression of a broad spectrum of genes that encode for antioxidants. […] Finding a small molecule that act as an inhibitor of Nrf2 function would represent a novel therapeutic target that could lead to improvement in survival of patients undergoing chemo- and/or radio- therapy.\nSo here we implemented a counterscreen to weed out the cytotoxic compounds.\n1. Shibata, T., et al., Genetic Alteration of Keap1 Confers Constitutive Nrf2 Activation and Resistance to Chemotherapy in Gallbladder Cancer. Gastroenterology, 2008.\n2. Sjoblom, T., et al., The consensus coding sequences of human breast and colorectal cancers. Science, 2006. 314(5797): p. 268-74.\nNCGC Assay Protocol Summary:\nA concentration-response assay was performed with A549 ARE_Fluc cells which are suspended in 5% FBS OPTI-MEM. Five uL were dispensed into 1536-well white TC-treated plate using the Kalypsys dispenser to achieve a density of 5000 cells/well in all columns except column 1. The plate is incubated at 37deg C at 5% CO2 for 2 hours before 23 nL of compounds are added with the Kalypsys pin tool equipped with a 1,536-pin array containing 10-nL slotted pins (FP1S10, 0.457-mm diameter, 50.8 mm long; V&P Scientific). The control compounds Budesonide and Staurosporine are both added at a concentration of 2mM and Budesonide is also added as a 1:10 titration, starting at 200uM, to achieve dose-response. After an 18-24 hour incubation at 37deg C at 5% CO2, 5ul of medium is added to column 1. Afterwards 1ul of 5x of CellTiter-Fluor (Promega) is added to every well. The plate is then incubated at 37deg C at 5% CO2 for 30 minutes before they are read on the ViewLux (Perkin Elmer) for a fluorescent read Ex=405(10)/Em=525(10) for a 3 second exposure, 2x binning, and high gain. Then 3 uL of 3x BugLite is dispensed into all wells and the plate is incubated at ambient room temperature for 15 minutes. Afterwards another ViewLux read is performed using the clear filter to get a luminescent read with the settings of 40 second exposure, 2x binning, and high gain. Cytotoxicity is assessed through the first fluorescent read and then biochemical activity against Nrf2 is measured in the luminescent read.", "values": [{"compound": "Cn1c(=O)c([N+](=O)[O-])c(NCc2ccccc2Cl)c2ccccc21", "Potency": "inconclusive: 20.6 µM [falling, single point]"}, {"compound": "CSc1cccc(NC(=O)C(C)C)c1", "Potency": "inactive"}, {"compound": "CCn1cc(Br)c(C(=O)Nc2ccc(F)cc2F)n1", "Potency": "inconclusive: 16.4 µM [activator, partial curve, poor fit]"}, {"compound": "C=CCc1cc(Cl)ccc1OCCOCCNC(C)CC", "note": "(stereo not drawn)", "Potency": "inconclusive: 7.31 µM [falling, partial curve, poor fit]"}, {"compound": "COc1ccc2ccc(O)c(CN(C)CC(=O)Nc3ccccc3C(F)(F)F)c2c1", "Potency": "inactive"}, {"compound": "CCN1CCc2c(sc(NC(=S)NC(=O)c3ccccc3)c2C#N)C1", "Potency": "inconclusive: 20 µM [falling, partial curve, poor fit]"}, {"compound": "CCCN(CCC)CCCNC(=O)C1CCC(CNS(=O)(=O)c2ccc(NC(C)=O)cc2)CC1", "note": "(stereo not drawn)", "Potency": "inactive"}, {"compound": "O=C(CSc1nc(-c2cccs2)cc(C(F)(F)F)n1)Nc1cc(OCC(F)(F)F)cc([N+](=O)[O-])c1", "Potency": "inactive"}, {"compound": "COc1cc(C(CC(=O)N2CCCC2)c2c(OC)cc(OC)c3c(-c4ccccc4)cc(=O)oc23)cc(OC)c1OC", "note": "(stereo not drawn)", "Potency": "inconclusive: 23.1 µM [falling, single point]"}, {"compound": "Cn1cc(C(c2ccccc2OCC(=O)O)c2cn(C)c3ccccc23)c2ccccc21", "Potency": "inconclusive: 16.4 µM [falling, single point]"}, {"compound": "C#CCOCCOCCOCCNc1nc(N2CCN(C(=O)CCCCCCCCCCNC(=O)[C@H](CCCCN)n3cc(C[C@@H](C)CC)nn3)CC2)nc(N2CCN(C(=O)CCCCCCCCCCNC(=O)[C@H](CCCCN)n3cc(C[C@@H](C)CC)nn3)CC2)n1", "Potency": "inconclusive: 18.4 µM [falling, single point]"}, {"compound": "Cc1ccc(NC(=O)C(=O)NCC(c2cccnc2)N2CCOCC2)cc1C", "note": "(stereo not drawn)", "Potency": "inconclusive: 29.1 µM [falling, single point]"}, {"compound": "COc1cccc(NC(=O)c2ccc(-c3ccccc3[N+](=O)[O-])o2)c1", "Potency": "inconclusive: 23.1 µM [falling, single point]"}, {"compound": "COc1cc(CCC(=O)Nc2ccc(Cl)c(C(F)(F)F)c2)cc(OC)c1OC", "Potency": "inconclusive: 29.1 µM [falling, partial curve, poor fit]"}, {"compound": "CCOc1ccc(-n2c(Cc3ccccc3)nnc2SCc2nc(-c3ccccc3C)no2)cc1", "Potency": "inconclusive: 29.1 µM [falling, single point]"}, {"compound": "CCOc1ccc(-n2c(-c3ccc(Cl)cc3)c[n+]3c2SCC3)cc1", "Potency": "inactive"}, {"compound": "CCCCn1c(SCC(=O)Nc2nnc(C(C)C)s2)nc2c1c(=O)n(C)c(=O)n2C", "Potency": "inconclusive: 13 µM [falling, partial curve, poor fit]"}, {"compound": "Cc1c(CCOC(=O)CC23CC4CC(CC(C)(C4)C2)C3)sc[n+]1CC(=O)c1ccccc1", "Potency": "inconclusive: 25.9 µM [activator, partial curve, poor fit]"}, {"compound": "COc1cccc(CN(C)CC(=O)NC(=O)NCc2ccco2)c1", "Potency": "inconclusive: 20.6 µM [activator, partial curve, poor fit]"}, {"compound": "CCc1nnc(NC(=O)CN2CCN(Cc3ccc(F)cc3)CC2)s1", "Potency": "inconclusive: 32.6 µM [activator, partial curve, poor fit]"}, {"compound": "COc1cccc(-c2ccc(NC(=O)C3CCCN(Cc4ccco4)C3)cc2)c1", "note": "(stereo not drawn)", "Potency": "inconclusive: 20.6 µM [falling, single point]"}, {"compound": "COc1ccc2c(c1)C(C)=CC(C)(C)N2S(=O)(=O)c1ccc(C)cc1", "Potency": "inconclusive: 3.26 µM [falling, partial curve, poor fit]"}, {"compound": "O=C(COc1cc2oc(=O)c3c(c2cc1Cl)CCC3)Nc1ccccn1", "Potency": "inactive"}, {"compound": "O=C(/C=C/c1cccc(Cl)c1)c1ccc([N+](=O)[O-])o1", "Potency": "inconclusive: 20.6 µM [falling, partial curve, poor fit]"}, {"compound": "COc1ccc(/C=N/NC(=O)CCn2cnc(-c3ccccc3)c2-c2ccccc2)cc1", "Potency": "inconclusive: 20.6 µM [falling, partial curve]"}, {"compound": "O=C(/C=C/c1ccccc1)NC(=S)NNC(=O)c1cnccn1", "Potency": "inactive"}, {"compound": "Cc1[nH]nc2c1-c1nc3ccccc3nc1C(C)(C)C2", "Potency": "active: 14.6 µM"}, {"compound": "O=C(Nc1nc(-c2cccs2)cs1)c1cccc(S(=O)(=O)N2CCCCC2)c1", "Potency": "inactive"}, {"compound": "CCOC(=O)CNc1c(-c2ccc(O)cc2)nc2ccc(Cl)cn12", "Potency": "inactive"}, {"compound": "COc1ccc(-n2ncc3c(N4CCN(c5cccc(C)c5)C(C)C4)ncnc32)cc1", "note": "(stereo not drawn)", "Potency": "inconclusive: 9.2 µM [falling, partial curve]"}, {"compound": "CC1(C)CC(=O)C2=C(C1)N(c1cccnc1)C(N)=C(C#N)C2c1cccs1", "note": "(stereo not drawn)", "Potency": "inactive"}, {"compound": "CCOC(=O)Cc1[nH]nc2c1C(c1cccc(OC)c1OC)C(C#N)=C(N)O2", "note": "(stereo not drawn)", "Potency": "inactive"}, {"compound": "Cc1ccccc1Cn1c(O)c(N=NC(=S)Nc2ccccc2F)c2ccccc21", "Potency": "inconclusive: 16.4 µM [falling, partial curve, poor fit]"}, {"compound": "Clc1ccc2nc(-c3ccc(Br)s3)cn2c1", "Potency": "inactive"}, {"compound": "C/C(N)=C(/C#N)C(=O)COC(=O)COc1ccc(Cl)cc1C", "Potency": "inconclusive: 32.6 µM [activator, partial curve, poor fit]"}, {"compound": "CN(C)S(=O)(=O)Oc1ccc(C(=O)Nc2cccc(C(F)(F)F)c2)cc1", "Potency": "inconclusive: 23.1 µM [falling, partial curve, poor fit]"}, {"compound": "CCOC(=O)c1cnc2c(c(C)nn2C)c1Oc1ccc(Cl)cc1", "Potency": "inconclusive: 29.1 µM [falling, single point]"}, {"compound": "COc1ccc(-c2nc3n(n2)C(c2ccc(OC)cc2)C(C(=O)Nc2cccnc2)=C(C)N3)cc1", "note": "(stereo not drawn)", "Potency": "inactive"}, {"compound": "O=C(NC1CCCC1)c1c[nH]c2ccc(S(=O)(=O)Nc3cccc(C(F)(F)F)c3)cc2c1=O", "Potency": "inactive"}, {"compound": "COc1cccc2c1C(=O)c1c(O)c3c(c(O)c1C2=O)CC(O)(C(=O)CO)CC3OC1CC(N(C)C)C(O)C(C)O1", "note": "(stereo not drawn)", "Potency": "inconclusive: 5.8 µM [falling, partial curve]"}, {"compound": "CCn1c(CNC(=O)c2ccc(OC)cc2)nnc1SCC(=O)Nc1ccc(OC)cc1", "Potency": "inactive"}, {"compound": "COc1cc(CNc2ccc(N3CCN(C(C)=O)CC3)cc2)ccc1OCc1ccccc1", "Potency": "inconclusive: 29.1 µM [falling, single point]"}, {"compound": "O=C(NC1CCN(C(=O)NCc2ccccc2)CC1)c1ccc(F)cc1", "Potency": "inconclusive: 20.6 µM [falling, single point]"}, {"compound": "COc1cccc(Nc2ccc([N+](=O)[O-])c3nonc23)c1", "Potency": "active: 18.4 µM"}, {"compound": "COc1ccc(C(=O)/C=C/c2ccc(N(C)C)cc2)c(OC)c1", "Potency": "inconclusive: 29.1 µM [activator, single point]"}, {"compound": "O=C(NCCc1ccccc1)c1ccc2c(c1)N(Cc1ccccc1Cl)C(=O)c1ccccc1S2", "Potency": "inactive"}, {"compound": "COc1ccc(OC)c(S(=O)(=O)N2CCC(C(=O)Nc3cccc(C(F)(F)F)c3)CC2)c1", "Potency": "inconclusive: 32.6 µM [falling, partial curve, poor fit]"}, {"compound": "O=C(Nc1cccc(-c2cnc3ccccc3n2)c1)c1ccccc1", "Potency": "inactive"}, {"compound": "c1ccc(-c2nc(N3CCCCCC3)c3ccccc3n2)nc1", "Potency": "inconclusive: 18.4 µM [falling, single point]"}, {"compound": "CCOC(=O)C(CC)Sc1ccc2nnc(-c3ccc(F)cc3)n2n1", "note": "(stereo not drawn)", "Potency": "inactive"}, {"compound": "Cc1cccc(NC(=O)CSc2nc(COc3ccccc3)nc3ccccc23)c1C", "Potency": "inconclusive: 29.1 µM [falling, single point]"}, {"compound": "Cc1cccc(Cn2c(O)c(N=NC(=S)Nc3ccccc3F)c3ccccc32)c1", "Potency": "inconclusive: 11.6 µM [falling, partial curve, poor fit]"}, {"compound": "CCN1CCN(c2ccc(Cl)cc2NC(=O)c2ccco2)CC1", "Potency": "inconclusive: 29.1 µM [activator, single point]"}, {"compound": "O=C(CN1C=NS(=O)(=O)c2ccccc21)Nc1ccc(F)cc1", "Potency": "inactive"}, {"compound": "COc1ccc(S(=O)(=O)NCCC(=O)NCc2ccc(F)cc2)cc1", "Potency": "inconclusive: 0.326 µM [falling, partial curve, poor fit]"}, {"compound": "CC1CCCC(NC(=O)NC(=O)CCl)C1C", "note": "(stereo not drawn)", "Potency": "inactive"}, {"compound": "COc1ccc(CNC(=O)c2cc3cc(C)ccc3n2C)cc1", "Potency": "inactive"}, {"compound": "O=c1c2ccccc2[nH]c2ccc(O)cc12", "Potency": "inconclusive: 23.1 µM [activator, single point]"}, {"compound": "CCOC(=O)Nc1ccc(=O)n(Cc2c(Cl)cccc2Cl)c1", "Potency": "inactive"}, {"compound": "Cc1[nH]c(-c2ccc(F)cc2)cc1C(=O)N1CCN(c2ccc(Cl)cc2)CC1", "Potency": "inactive"}, {"compound": "CN1c2ccccc2C(O)=C(C(=S)Nc2ccc(F)c(Cl)c2)S1(=O)=O", "Potency": "inconclusive: 23.1 µM [falling, single point]"}, {"compound": "CCOCCCn1c(=NC(C)=O)c(C(=O)OCC)cc2c(=O)n3ccccc3nc21", "Potency": "inconclusive: 12.6 µM [activator, partial curve]"}, {"compound": "O=C(Nc1ccccc1)Nc1ncc([N+](=O)[O-])s1", "Potency": "active: 23.1 µM"}, {"compound": "Cc1cccc(C(=O)Nc2ccc(-c3nc4ccccc4s3)cc2Cl)c1", "Potency": "inactive"}, {"compound": "CCOc1ccc(NC(=O)CN2CCN(CC(=O)Nc3ccc(Cl)c(C(F)(F)F)c3)CC2)cc1", "Potency": "inconclusive: 23.1 µM [falling, partial curve, poor fit]"}, {"compound": "O=C(NCc1cc([N+](=O)[O-])ccc1O)c1cccnc1Sc1ccccc1Cl", "Potency": "inconclusive: 20.6 µM [falling, single point]"}, {"compound": "O=C(NCCCN1CCCCC1)c1ccc(CS(=O)c2ccc(Cl)cc2)o1", "note": "(stereo not drawn)", "Potency": "inconclusive: 0.259 µM [activator, full curve, poor fit]"}, {"compound": "CC(=O)Nc1cccc(Nc2nc(-c3ccccc3F)nc3ccccc23)c1", "Potency": "inactive"}]}]}
